Results as given in publication PMC5851652.
Read-outs that look alike come from different tables or passages of the source. No constants are given. Whether binding was seen depends on the method and setting. In cells and extracts the contact can be indirect. For some assays here: Sequences can lack the tags named with a protein.

Sequences of proteins named here, by UniProt entry; tags and fusion partners are left off. Residues count along the entry.
UniProt P03495, residues 203-237: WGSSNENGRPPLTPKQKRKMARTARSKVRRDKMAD

B1: human OASL-V5 WT (protein, UniProt Q15646 1-514)
chain: MALMQELYSTPASRLDSFVAQWLQPHREWKEEVLDAVRTVEEFLRQEHFQGKRGLDQDVRVLKVVKVGSFGNGTVLRSTREVELVAFLSCFHSFQEAAKHHKDVLRLIWKTMWQSQDLLDLGLEDLRMEQRVPDALVFTIQTRGTAEPITVTIVPAYRALGPSLPNSQPPPEVYVSLIKACGGPGNFCPSFSELQRNFVKHRPTKLKSLLRLVKHWYQQYVKARSPRANLPPLYALELLTIYAWEMGTEEDENFMLDEGFTTVMDLLLEYEVICIYWTKYYTLHNAIIEDCVRKQLKKERPIILDPADPTLNVAEGYRWDIVAQRASQCLKQDCCYDNRENPISSWNVKRARDIHLTVEQRGYPDFNLIVNPYEPIRKVKEKIRRTRGYSGLQRLSFQVPGSERQLLSSRCSLAKYGIFSHTHIYLLETIPSEIQVFVKNPDGGSYAYAINPNSFILGLKQQIEDQQGLPKKQQQLEFQGQVLQDWLGLGIYGIQDSDTLILSKKKGEALFPAS

Legend:
human OASL-V5 WT (human) = target: T1, human OASL-V5 WT (human) (UniProt Q15646); test: co-IP
T1 sequence: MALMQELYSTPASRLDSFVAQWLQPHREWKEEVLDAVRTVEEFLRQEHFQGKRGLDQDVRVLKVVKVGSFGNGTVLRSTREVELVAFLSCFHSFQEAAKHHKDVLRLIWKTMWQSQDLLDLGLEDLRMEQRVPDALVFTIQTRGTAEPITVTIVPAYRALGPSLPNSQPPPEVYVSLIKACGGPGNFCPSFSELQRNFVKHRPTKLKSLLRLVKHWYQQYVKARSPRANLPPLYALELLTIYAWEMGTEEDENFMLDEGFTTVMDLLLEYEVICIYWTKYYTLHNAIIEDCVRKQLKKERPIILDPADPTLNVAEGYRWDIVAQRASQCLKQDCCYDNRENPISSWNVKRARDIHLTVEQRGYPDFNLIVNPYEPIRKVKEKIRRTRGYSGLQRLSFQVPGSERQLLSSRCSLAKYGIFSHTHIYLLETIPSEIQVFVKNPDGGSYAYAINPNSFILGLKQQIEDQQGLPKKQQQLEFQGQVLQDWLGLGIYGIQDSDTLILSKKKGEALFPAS

[1] = target: LacZ-myc (beta-galactosidase) [β-galactosidase: P00722]; test: co-IP; anti-myc immunoprecipitation of RIPA lysates of co-transfected 293T cells; immunoblot with anti-V5 and anti-myc
[2] = target: GFP-NS1A(203-237) (influenza A/Udorn/72) (UniProt P03495); test: co-IP
[3] = target: LacZ-myc (beta-galactosidase) [β-galactosidase: P00722]; test: co-IP; anti-myc immunoprecipitation of RIPA lysates of co-transfected 293T cells; immunoblot with anti-V5 and anti-myc; remark: listed apart in the source

Molecule	binding [1]	also measured
GFP-NS1A(203-237) (from UniProt P03495 203-237) (domain or fragment)	–	binding (human OASL-V5 WT (human)): no binding
OASL E81A-V5 (from UniProt Q15646 1-514)	no binding	–
OASL E83A-V5 (from UniProt Q15646 1-514)	no binding	–
OASL K63E-V5 (from UniProt Q15646 1-514)	no binding	–
OASL K66E-V5 (from UniProt Q15646 1-514)	no binding	–
OASL N72K-V5 (from UniProt Q15646 1-514)	no binding	–
OASL R45E/K66E/R196E/K200E-V5 (from UniProt Q15646 1-514)	no binding	–
OASL T152A-V5 (from UniProt Q15646 1-514)	no binding	–
OASL V67G-V5 (from UniProt Q15646 1-514)	no binding	–
B1	–	binding [2]: no binding; binding [3]: no binding
